Test results published in paper PMC2868895.

Target: T1, p107 (human (endogenous in Molt 4)) (UniProt P28749)
T1 sequence: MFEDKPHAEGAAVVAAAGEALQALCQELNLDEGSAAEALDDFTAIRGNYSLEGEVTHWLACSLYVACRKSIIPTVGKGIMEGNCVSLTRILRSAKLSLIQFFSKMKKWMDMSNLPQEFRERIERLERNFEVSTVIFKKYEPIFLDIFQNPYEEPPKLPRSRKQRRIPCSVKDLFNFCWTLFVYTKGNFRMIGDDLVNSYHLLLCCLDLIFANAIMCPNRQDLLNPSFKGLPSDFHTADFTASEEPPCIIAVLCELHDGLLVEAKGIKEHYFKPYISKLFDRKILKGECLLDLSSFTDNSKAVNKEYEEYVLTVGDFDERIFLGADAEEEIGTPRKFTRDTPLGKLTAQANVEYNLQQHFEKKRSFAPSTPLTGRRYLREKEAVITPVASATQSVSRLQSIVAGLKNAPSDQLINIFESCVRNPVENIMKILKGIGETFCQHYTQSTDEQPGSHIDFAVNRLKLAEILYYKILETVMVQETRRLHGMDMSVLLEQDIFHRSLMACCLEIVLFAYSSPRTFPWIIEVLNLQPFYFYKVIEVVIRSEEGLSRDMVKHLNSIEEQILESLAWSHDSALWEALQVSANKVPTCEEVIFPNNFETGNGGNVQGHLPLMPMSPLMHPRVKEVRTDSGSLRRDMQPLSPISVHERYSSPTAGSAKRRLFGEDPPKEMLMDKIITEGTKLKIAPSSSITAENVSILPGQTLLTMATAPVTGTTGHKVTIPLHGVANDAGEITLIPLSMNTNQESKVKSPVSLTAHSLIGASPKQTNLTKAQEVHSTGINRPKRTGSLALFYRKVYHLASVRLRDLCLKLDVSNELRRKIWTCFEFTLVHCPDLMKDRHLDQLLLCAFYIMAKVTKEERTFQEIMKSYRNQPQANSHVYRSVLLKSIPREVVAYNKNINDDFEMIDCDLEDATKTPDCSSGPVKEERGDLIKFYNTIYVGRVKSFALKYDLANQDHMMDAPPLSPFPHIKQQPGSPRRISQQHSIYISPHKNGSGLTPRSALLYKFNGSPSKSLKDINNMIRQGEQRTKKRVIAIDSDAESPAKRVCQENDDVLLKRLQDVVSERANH
Test: co-IP; lysates of Rat2, MEF or 3T3 cells expressing all five JCV early proteins or tAg only, incubated overnight with Molt 4 extracts; IP with anti-p107 antibody, Western blot with a cocktail of anti-T monoclonal antibodies

Substance | binding
JC virus small tumor antigen mutant C157A | binds
JC virus T'165 protein | binds weakly
JC virus T'135 protein | binds
JC virus T'136 protein | binds
JC virus small tumor antigen mutant P99A | binds

These are yes or no findings as the source states them, for the method shown. In cells and extracts the contact can be indirect. A result given as binding can be weak or reduced; the word gives no strength.
